Measured values as given in article PMC2731243, “Structure and Novel Functional Mechanism of Drosophila SNF in Sex-Lethal Splicing”.

Biological target: T1, SNF RRM2 (Drosophila melanogaster) (UniProt P43332)
T1 sequence (looked up): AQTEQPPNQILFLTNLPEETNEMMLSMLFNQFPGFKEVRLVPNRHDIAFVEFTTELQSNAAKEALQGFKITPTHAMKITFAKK
Experiment: NMR titration
Details: recombinant protein; residues 134-216

UUUUUUUUAUUUUUUUUU [2U-run (NMR)]: binds more weakly.

The comparison behind a weaker result is the experiment's own reference, which may not be listed here. Where a protein sequence is shown, tags need not be part of it.
